{"source": "PubChem BioAssay AID1259424 (University of Nebraska Medical Center, 2018)", "screen": "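Seek colon cancer survival genes behaving like KSR1, using a six-gene signature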 (primary screen)", "cell system": "human HCT116 colon cancer cells", "knock-down reagent": "siRNA pool against human genes, 50 nM", "detection": "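Six signature mRNAs by branched-DNA multiplex assay, scaled to two housekeeping genes and non-targeting median, log2; matched to mean KSR1 knockdown profile by Pearson correlation and euclidean distance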", "direction": "mean correlation with KSR1 profile: higher = expression change more like KSR1 knockdown; mean distance from KSR1 profile: higher = expression change less like KSR1 knockdown", "note": "The whole screen tested about 14,000 reagents; below is a part drawn at random. 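Higher correlation or smaller distance means closer resemblance to KSR1 loss; control wells, including KSR1 knockdowns, recur on many plates.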 Further read-outs or replicates are left out here. Not given: the time to read-out."}
{"gene":"PDE10A (phosphodiesterase 10A)","mean correlation with KSR1 profile":-0.624,"mean distance from KSR1 profile":1.64}
{"gene":"CDV3 (CDV3 homolog)","mean correlation with KSR1 profile":-0.661,"mean distance from KSR1 profile":2.18}
{"gene":"CACNG8 (calcium voltage-gated channel auxiliary subunit gamma 8)","mean correlation with KSR1 profile":0.0982,"mean distance from KSR1 profile":2.45}
{"gene":"DCUN1D5 (defective in cullin neddylation 1 domain containing 5)","mean correlation with KSR1 profile":0.591,"mean distance from KSR1 profile":1.37}
{"gene":"CCDC90B (coiled-coil domain containing 90B)","mean correlation with KSR1 profile":0.0245,"mean distance from KSR1 profile":2.42}
{"gene":"FMO3 (flavin containing dimethylaniline monoxygenase 3)","mean correlation with KSR1 profile":-0.235,"mean distance from KSR1 profile":2.23}
{"gene":"HERC1","mean correlation with KSR1 profile":0.387,"mean distance from KSR1 profile":1.78}
{"gene":"DDX52 (DExD-box helicase 52)","mean correlation with KSR1 profile":-0.76,"mean distance from KSR1 profile":2.14}
{"gene":"RGS1 (regulator of G protein signaling 1)","mean correlation with KSR1 profile":0.72,"mean distance from KSR1 profile":1.61}
{"gene":"ARHGEF4 (Rho guanine nucleotide exchange factor 4)","mean correlation with KSR1 profile":-0.132,"mean distance from KSR1 profile":1.63}
{"gene":"NRP2 (neuropilin 2)","mean correlation with KSR1 profile":-0.57,"mean distance from KSR1 profile":2.39}
{"gene":"COLGALT2 (collagen beta(1-O)galactosyltransferase 2)","mean correlation with KSR1 profile":-0.52,"mean distance from KSR1 profile":2.89}
{"gene":"GBGT1","mean correlation with KSR1 profile":-0.487,"mean distance from KSR1 profile":1.88}
{"gene":"NRG3 (neuregulin 3)","mean correlation with KSR1 profile":0.463,"mean distance from KSR1 profile":2.09}

Ordered by “mean distance from KSR1 profile” (descending): some entries from above
{"gene":"CACNG8 (calcium voltage-gated channel auxiliary subunit gamma 8)","mean correlation with KSR1 profile":0.0982,"mean distance from KSR1 profile":2.45}
{"gene":"CDV3 (CDV3 homolog)","mean correlation with KSR1 profile":-0.661,"mean distance from KSR1 profile":2.18}
{"gene":"PDE10A (phosphodiesterase 10A)","mean correlation with KSR1 profile":-0.624,"mean distance from KSR1 profile":1.64}
{"gene":"DCUN1D5 (defective in cullin neddylation 1 domain containing 5)","mean correlation with KSR1 profile":0.591,"mean distance from KSR1 profile":1.37}

The listing continues.
{"gene":"KTN1 (kinectin 1)","mean correlation with KSR1 profile":0.241,"mean distance from KSR1 profile":1.14}
{"gene":"ISCA1 (iron-sulfur cluster assembly 1)","mean correlation with KSR1 profile":-0.194,"mean distance from KSR1 profile":2.24}
{"gene":"STEAP3 (STEAP3 metalloreductase)","mean correlation with KSR1 profile":-0.284,"mean distance from KSR1 profile":1.38}
{"gene":"ARPC5 (actin related protein 2/3 complex subunit 5)","mean correlation with KSR1 profile":-0.256,"mean distance from KSR1 profile":2.66}
{"gene":"SHPK (sedoheptulokinase)","mean correlation with KSR1 profile":0.245,"mean distance from KSR1 profile":1.53}
{"gene":"USF2 (upstream transcription factor 2, c-fos interacting)","mean correlation with KSR1 profile":-0.297,"mean distance from KSR1 profile":1.88}
{"gene":"CD74 (CD74 molecule)","mean correlation with KSR1 profile":0.0588,"mean distance from KSR1 profile":1.49}
{"gene":"OXTR (oxytocin receptor)","mean correlation with KSR1 profile":0.745,"mean distance from KSR1 profile":1.27}
{"gene":"SND1-IT1 (SND1 intronic transcript 1)","mean correlation with KSR1 profile":0.791,"mean distance from KSR1 profile":1.8}
{"gene":"ZNF473 (zinc finger protein 473)","mean correlation with KSR1 profile":0.114,"mean distance from KSR1 profile":2.2}
{"gene":"TMEM131 (transmembrane protein 131)","mean correlation with KSR1 profile":0.0998,"mean distance from KSR1 profile":1.85}
{"gene":"BANP (BTG3 associated nuclear protein)","mean correlation with KSR1 profile":0.263,"mean distance from KSR1 profile":1.89}
{"gene":"HLA-DMB (major histocompatibility complex, class II, DM beta)","mean correlation with KSR1 profile":-0.626,"mean distance from KSR1 profile":2.37}
{"gene":"SLC2A4RG (SLC2A4 regulator)","mean correlation with KSR1 profile":-0.647,"mean distance from KSR1 profile":3.04}
